Test results taken from patent publication US20050148627A1 (priority 2003, published 2005).
The match of structure and compound is tentative.

By UniProt entry, the sequences of proteins in these tests, tags left out. Residues count along the entry.
UniProt P35354, 18-604 limits assumed: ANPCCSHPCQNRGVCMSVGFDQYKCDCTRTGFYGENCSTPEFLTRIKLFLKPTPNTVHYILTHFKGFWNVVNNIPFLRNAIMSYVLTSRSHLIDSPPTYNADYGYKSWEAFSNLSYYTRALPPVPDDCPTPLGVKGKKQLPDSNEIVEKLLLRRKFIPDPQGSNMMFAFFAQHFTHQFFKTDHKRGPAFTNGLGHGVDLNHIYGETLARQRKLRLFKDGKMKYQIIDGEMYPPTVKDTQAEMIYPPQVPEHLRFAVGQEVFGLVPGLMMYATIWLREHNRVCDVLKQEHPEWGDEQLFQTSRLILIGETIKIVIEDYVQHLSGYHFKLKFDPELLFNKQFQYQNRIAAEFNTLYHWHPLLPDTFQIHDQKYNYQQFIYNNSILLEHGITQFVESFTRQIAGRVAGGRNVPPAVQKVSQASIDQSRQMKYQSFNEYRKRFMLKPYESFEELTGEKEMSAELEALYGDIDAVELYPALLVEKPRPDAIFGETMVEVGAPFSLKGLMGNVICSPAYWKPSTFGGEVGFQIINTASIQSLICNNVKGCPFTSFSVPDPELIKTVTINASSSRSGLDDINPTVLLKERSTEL

Tests used:
[1] = target: T1, COX-2 (Homo sapiens, UniProt P35354); test: Modified Assay for COX-1 and COX-2 Activity (PGE2 ELISA): COX-2; details: read-out: hCox-2 Modified IC50, human COX-2
[2] = target: T1, COX-2; test: Assay for COX-1 and COX-2 Activity (PGE2 ELISA): COX-2; details: read-out: hCox-2 IC50; human COX-2; standard assay

Compound	IC50 [1] [µM]	IC50 [2] [µM]
CC(C)(c1ccccc1)c1ccc(Oc2cc3c(cc2Cl)C=C(C(=O)O)C(C(F)(F)F)O3)cc1 (stereo not shown)	3.16	8.9
COc1cc2c(cc1-c1ccc(SC)cc1)C=C(C(=O)O)C(C(F)(F)F)O2 (stereo not shown)	10.2	9
